The list shows a part of the results. No stated cut-off is given here; in the data, active = 2 or more and inactive = the rest. Most values lie within the scatter of the assay; repeated measurements hardly agree.
What follows are compounds tested on Lgr5 (MarsCy1-Lgr5-EGFP, U2OS) (assay: cell-surface Lgr5 expression (SCi1 fluorescence, background-subtracted) relative to WT DMSO (fold of DMSO control); higher = more Lgr5 at the plasma membrane). Conditions: U2OS MarsCy1-Lgr5-EGFP stable; treatment time: overnight; library: ActiProbe-5K (TimTec); 25 µM.

SMILES	cell-surface Lgr5 expression
N#CC12C(N)=NC3(OCCO3)C1(C#N)C2c1ccco1 (centres undefined)	inactive: 1.05
CC1=C(Cl)c2ccc(Cl)cc2S1(=O)=O	inactive: 1.16
CSc1nc2c(cc1C#N)CCCCC2	inactive: 1.27
Cc1nn(C)cc1-c1nnc(C23CC4CC(CC(C4)C2)C3)o1	inactive: 1.28
CCOC(=O)C1=C(C)NC2=C(C(=O)CC(C)(C)C2)C1c1ccc(C)s1 (centres undefined)	inactive: 1.12
CC(C)n1cc(NC(=O)Cn2cc([N+](=O)[O-])cn2)cn1	inactive: 0.954
C#CC(C)(C)N1CC(C)C(=O)CC1C (centres undefined)	inactive: 1.16
Fc1cc(F)c(F)c(OCc2nc(-c3ccncc3)no2)c1F	inactive: 0.805
NC(=O)c1c(NC(=O)C2CCCO2)sc2c1CCCC2 (centres undefined)	inactive: 0.945
c1ccc2[nH]c(C3CCCN3)nc2c1 (centres undefined)	inactive: 1.17
O=C(NCCC1=CCCCC1)C(=O)NC1CCCCC1	inactive: 1.26
CC(=C/c1ccco1)/C=N/n1cnnc1	inactive: 1.03
CCOC(=O)C1CN(C2CCCCC2)C(=O)C1=O (centres undefined)	inactive: 1.01
Cc1c(C#N)c(N)n(CC2CCCO2)c1C (centres undefined)	inactive: 0.918
O=C(/C=C/c1ccc(Cl)c(Cl)c1)c1ccc2c(c1)OCO2	inactive: 1.33
N#Cc1cc2nc3ccccn3c2cc1C#N	inactive: 1.03
Cc1c(C)c2c(C)n[nH]c2oc1=O	inactive: 0.977
Cc1nnc(SCc2c(C)cc(C)c(CSc3nnc(C)s3)c2C)s1	inactive: 1.03
CC(C)n1cc(C=O)c2ccc(F)cc21	inactive: 0.406
O=C(O)C1=CC(Cl)=C(Cl)[C@H](O)[C@@H]1O	inactive: 1.33
C1(C(C\2(C(O1)(CCC2=C(/C)C)C)C)Cc1ncccc1)=O (centres undefined)	inactive: 1.09
CCC(C)(C#CCN1CCCCC1)OCCC#N (centres undefined)	inactive: 1.05
C=C(C)CC1NC2CC(C)(C)C1c1c(Br)ccc(Br)c12.Cl (centres undefined)	inactive: 1.18
O/N=C1\c2ccccc2-c2nc3ccccc3nc21	inactive: 1.24
COC(=O)C12CC3(C(=O)OC)CC(C(=O)OC)(CC(C(=O)OC)(C1)C3=O)C2=O	inactive: 1.16
C/C=C/C1OC(=O)C2(CCCCC2)C(=O)C1(C)C (centres undefined)	inactive: 1.1
CCn1nc(N)c2c(C)c(Cl)c(C)nc21	inactive: 1.22

SMILES	cell-surface Lgr5 expression
O=C(Nc1nc(-c2ccc(Br)s2)cs1)c1ccnn1C(F)F	inactive: 0.637
O=C1C=CC(=O)N1C1CCCCC1	inactive: 1.29
CSC1=NC(C)(C)CC2=C(C)C=C(C)C3(CC(C)(C)N=C3SC)C2=C1 (centres undefined)	inactive: 1.22
CC1(C)Nc2ccccc2-c2c1ss/c2=N/c1cccc(Cl)c1	inactive: 1.45
COc1ccc2c(c1)-c1c(ssc1=S)C(C)(C)N2	inactive: 0.538
CCn1cc(Cn2cc(NC(=O)CCn3nc(C(F)(F)F)c(Cl)c3C)cn2)cn1	inactive: 1.1
CC1CC(C)(C)Nc2ccc(O)cc21 (centres undefined)	active: 2.3
COc1cc2c(cc1OC)/C(=C\c1cc(OC)c(OC)c(OC)c1)C(=O)N2	inactive: 1.23
Cc1c(C2NC(N)=Nc3nc4ccccc4n32)c2ccccc2n1C (centres undefined)	inactive: 1.29
CC(C)COC(=O)CNc1n[nH]c(=O)[nH]c1=O	inactive: 1.19
Fc1ccc(OCc2nc(-c3ccc(Br)o3)no2)c(F)c1	inactive: 1
Fc1ccc2[nH]c3nc4ncc(Br)cc4nc3c2c1	inactive: 1.23
Fc1ccc(/C=N\N2CCN(C3c4ccccc4-c4ccccc43)CC2)cc1	inactive: 1.02
COC(=O)c1c(NC(=O)CCC(=O)O)sc2c1CCC2	inactive: 0.814
C(=N\Nc1nnn[nH]1)/c1c2ccccc2cc2ccccc12	inactive: 1.55
O=C(Nc1nncs1)c1ccco1	inactive: 1.22
CN(C)c1ccc(S(C)(=O)=O)cc1	inactive: 1.06
[O-][n+]1onc2cc(F)c(F)cc21	inactive: 0.916
N#C/C(=C/c1ccc2c(c1)OCO2)c1ccc(Cl)cc1Cl	active: 2.54
Clc1ccc2c(c1)nc(SCc1ccon1)n1nccc21	inactive: 0.906
N#Cc1c(SCC(=O)NC23CC4CC(CC(C4)C2)C3)sc2c(=O)[nH]c(=O)[nH]c12	inactive: 1.45
Fc1cc(F)c(C2SCCN2C(=S)NCCc2ccccc2)c(F)c1 (centres undefined)	inactive: 1.39
CC(NCc1cccs1)C12CC3CC(CC(C3)C1)C2 (centres undefined)	inactive: 1.11
CCCCCCCCCCCCN1CNC(=S)NC1	inactive: 1.08
CN1CCOCC1.N#Cc1c(S)[nH]c(C(F)(F)F)cc1=O	inactive: 1.11
Cn1cc(Cn2cc(Cl)c([N+](=O)[O-])n2)cn1	inactive: 1.33
O=C(C1CC12CCC2)N1CCc2ccccc21 (centres undefined)	inactive: 1.52

Fetched by compound from the list above, 2 records:
SMILES	cell-surface Lgr5 expression
O=C(NCCC1=CCCCC1)C(=O)NC1CCCCC1	inactive: 1.26
Fc1ccc(OCc2nc(-c3ccc(Br)o3)no2)c(F)c1	inactive: 1
